These are yes or no findings as the source states them, for the method shown. For part of these data: In cells and extracts the contact can be indirect. Some results given as binding are weak or reduced against the parent protein; the word gives no strength. Sequences can lack the tags named with a protein. One block for each molecule: values may come before it.
Tests used:
[1] = molecular target: T1, FLAG-SH3BGRL3 (SH3 Domain Binding Glutamate Rich Protein Like 3), expressed in SKBR3 cells (human) (UniProt Q9H299); assay: co-IP; SKBR3 cells transfected or co-transfected; lysate in EB buffer on anti-FLAG M2 Affinity gel resin overnight at 4 °C, 5 washes with EB buffer, elution with 10% SDS, western blot (anti-Myo1c, anti-ErbB2 or anti-HA)
T1 sequence: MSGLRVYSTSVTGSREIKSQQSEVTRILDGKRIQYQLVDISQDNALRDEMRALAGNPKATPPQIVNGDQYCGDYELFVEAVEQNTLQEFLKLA

Chains of the proteins cited; added tags and fusions are not shown.
UniProt P17677: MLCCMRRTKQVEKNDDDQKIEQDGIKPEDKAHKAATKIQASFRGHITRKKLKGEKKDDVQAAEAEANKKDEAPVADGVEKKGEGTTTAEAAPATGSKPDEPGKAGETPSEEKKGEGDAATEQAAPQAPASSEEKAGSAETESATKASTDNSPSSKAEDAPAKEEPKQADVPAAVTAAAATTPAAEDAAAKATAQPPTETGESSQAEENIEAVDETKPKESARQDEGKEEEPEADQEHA

[2] = molecular target: GST-GAP43 fusion protein (UniProt P17677); assay: pull-down; GST-GAP43 bound to Sepharose-Glutathione 4B, purified histidine-tagged SH3BGRL3, in presence of Ca2+ (EB buffer containing 1 mM CaCl2); western blot with anti-SH3BGRL3; both purified
[3] = molecular target: GST-GAP43 fusion protein (UniProt P17677); assay: pull-down; GST-GAP43 bound to Sepharose-Glutathione 4B, purified histidine-tagged SH3BGRL3, in presence of EGTA (EB buffer containing 1 or 5 mM EGTA); western blot with anti-SH3BGRL3; both purified

binding [1]: binds
Molecule: HA-tagged GAP43 (neuromodulin) (from UniProt P17677 1-238)

binding [2]: binds
B1: histidine-tagged SH3BGRL3 (protein, UniProt Q9H299 1-93)
chain: T1 sequence
binding [3]: no binding (condition: with 1 or 5 mM EGTA (no Ca2+))
